Among the data in publication PMC10864366, “Aggresome formation promotes ASK1/JNK signaling activation and stemness maintenance in ovarian cancer” (Nature Communications, 2024) are binding values, retold here.

Test [1] addresses T1, Flag-OTUD1 (aa 1–286 truncation) (UniProt Q5VV17).
T1 sequence: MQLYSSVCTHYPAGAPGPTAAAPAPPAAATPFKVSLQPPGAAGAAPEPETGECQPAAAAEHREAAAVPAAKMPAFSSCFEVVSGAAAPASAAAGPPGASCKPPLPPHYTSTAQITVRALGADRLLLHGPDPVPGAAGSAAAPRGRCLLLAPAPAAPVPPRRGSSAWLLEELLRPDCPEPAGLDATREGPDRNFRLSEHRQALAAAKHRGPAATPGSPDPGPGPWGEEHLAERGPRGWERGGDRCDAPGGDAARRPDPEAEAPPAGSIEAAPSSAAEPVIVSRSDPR
Description: co-IP; 293T cells co-transfected with Flag- and HA-tagged constructs; lysate sonicated; anti-FLAG or anti-HA magnetic beads, 6–8 h at 4 °C; immunoblot; for the ASK1 N-terminus with co-transfected Flag-OTUD1 WT or M1.

Test [2] addresses T2, Flag-OTUD1 (aa 287–481 truncation) (UniProt Q5VV17).
T2 sequence: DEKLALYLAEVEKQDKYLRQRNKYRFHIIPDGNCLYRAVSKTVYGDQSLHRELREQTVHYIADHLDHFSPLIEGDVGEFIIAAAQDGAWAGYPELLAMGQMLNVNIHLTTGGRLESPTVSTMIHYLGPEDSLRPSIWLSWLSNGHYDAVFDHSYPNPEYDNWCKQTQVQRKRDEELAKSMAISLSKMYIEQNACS
The test is described as above.

Results are given in words; binding and its absence hold for the method and conditions named. In cells and extracts the contact can be indirect. Some binding calls cover weakened binding; strength is not graded here. Where a sequence is shown, tags or fusion partners need not be part of it.

B1: Flag-OTUD1 (aa 1–286 truncation) (domain or fragment, UniProt Q5VV17 1-286)
chain: MQLYSSVCTHYPAGAPGPTAAAPAPPAAATPFKVSLQPPGAAGAAPEPETGECQPAAAAEHREAAAVPAAKMPAFSSCFEVVSGAAAPASAAAGPPGASCKPPLPPHYTSTAQITVRALGADRLLLHGPDPVPGAAGSAAAPRGRCLLLAPAPAAPVPPRRGSSAWLLEELLRPDCPEPAGLDATREGPDRNFRLSEHRQALAAAKHRGPAATPGSPDPGPGPWGEEHLAERGPRGWERGGDRCDAPGGDAARRPDPEAEAPPAGSIEAAPSSAAEPVIVSRSDPR
As to B1, the binding result in test [1] was “binds”.

B2: Flag-OTUD1 (aa 287–481 truncation) (domain or fragment, UniProt Q5VV17 287-481)
chain: DEKLALYLAEVEKQDKYLRQRNKYRFHIIPDGNCLYRAVSKTVYGDQSLHRELREQTVHYIADHLDHFSPLIEGDVGEFIIAAAQDGAWAGYPELLAMGQMLNVNIHLTTGGRLESPTVSTMIHYLGPEDSLRPSIWLSWLSNGHYDAVFDHSYPNPEYDNWCKQTQVQRKRDEELAKSMAISLSKMYIEQNACS
As for B2, the binding result in test [2] is listed as “no binding”.
